Data taken from PubChem BioAssay AID1671190 (National Center for Advancing Translational Sciences (NCATS), 2021).
Several values for one entry are separate records, joined by “and”; a condition that tells them apart may be missing. Equal values may be shown once. Hit rate of the full screen: of about 580,000 compounds, about 6,100 (1.1%) were called active. Inconclusive means that the source gave no clear call. Such entries were picked first, then a sample of the others. Calls follow the shape of the dose curve; as a rule, active = well fitted inhibition curve with a large enough effect; inconclusive = small, poorly fitted or top-dose-only effect, or another doubt; inactive = no such curve, though single readings can be large or run the other way. A potency beside an inconclusive call is a rough fit, not a confirmed value.

Amino acid sequences for entries named in this document (tags omitted).
UniProt P18054, whole entry, looked up: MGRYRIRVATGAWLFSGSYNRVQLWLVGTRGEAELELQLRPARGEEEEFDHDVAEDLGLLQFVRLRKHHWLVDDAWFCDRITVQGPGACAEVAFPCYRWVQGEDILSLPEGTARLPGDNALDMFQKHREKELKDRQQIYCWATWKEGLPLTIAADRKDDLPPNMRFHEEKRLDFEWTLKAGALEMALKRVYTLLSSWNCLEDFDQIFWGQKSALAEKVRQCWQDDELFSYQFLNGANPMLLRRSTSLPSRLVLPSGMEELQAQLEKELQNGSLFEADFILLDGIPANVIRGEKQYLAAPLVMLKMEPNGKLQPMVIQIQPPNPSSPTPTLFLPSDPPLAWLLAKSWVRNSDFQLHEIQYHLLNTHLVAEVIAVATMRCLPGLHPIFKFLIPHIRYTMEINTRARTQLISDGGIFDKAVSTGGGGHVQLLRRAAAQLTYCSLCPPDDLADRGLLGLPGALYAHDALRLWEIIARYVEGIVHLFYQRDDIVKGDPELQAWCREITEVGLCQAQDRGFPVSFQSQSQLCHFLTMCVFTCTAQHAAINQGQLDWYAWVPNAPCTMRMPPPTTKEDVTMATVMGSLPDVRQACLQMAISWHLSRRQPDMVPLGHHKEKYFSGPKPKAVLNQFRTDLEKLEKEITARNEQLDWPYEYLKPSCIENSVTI

The molecules below were run against Polyunsaturated fatty acid lipoxygenase ALOX12 (Homo sapiens) (UniProt P18054) (assay: Primary qHTS assay for inhibitors of human arachidonate 12S-lipoxygenase (ALOX12): Round 2). Settings: purified 12hLO, xylenol orange hydroperoxide absorbance; series mostly up to 108 µM.
Method in brief: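 Hydroperoxide product was detected by ferrous iron/xylenol orange as the 573 to 405 nm absorbance ratio. Arachidonic acid at 40 uM (final) was turned over for 30 min at room temperature by 150 nM human 12hLO, pH 7.0 Hepes buffer, after 15 min compound preincubation.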
Potency is read from the fitted curve at half-maximal effect.

| Structure (SMILES) | Potency |
| --- | --- |
| COc1ccc(-c2nn(-c3ccccc3)cc2/C=C\C(=O)Nc2ccc(C(=O)O)cc2)cc1 | active: 39.8 µM |
| Cc1ccc(C)c(CN2CC(C(=O)NCc3ccncc3)C3(CCOCC3)C2)c1 (stereo not drawn) | inactive |
| CN(C)CCNCc1ccc2c(c1)OCO2 | inconclusive: 112 µM [inhibitor, partial curve, poor fit] |
| COc1ccc(C(=O)Nc2nnc(SCC(=O)NC3CC3)s2)cc1 | inconclusive: 44.7 µM [inhibitor, partial curve, poor fit] |
| CCN(c1ccccc1)S(=O)(=O)c1csc(C(N)=O)c1 | inactive |
| Cc1cccc(C)c1OCc1cc(C(=O)N2CC3C[C@@H]4CC2C[C@H](C3)C4)no1 | inactive |
| CCN(CC)c1nc2c(c(=O)[nH]c(=O)n2C)n1Cc1ccccc1Cl | inconclusive: 89.1 µM [inhibitor, single point] |
| Cn1c(=O)c2[nH]c(CN3CCN(C(=O)c4ccco4)CC3)nc2n(C)c1=O | inactive |
| COCCCNC(=O)C[C@H]1C[C@H](C(=O)N2CCCCC2)[C@@]2(C)c3[nH]c4ccc(Cl)cc4c3CCN2C1=O | inconclusive: 44.7 µM [inhibitor, partial curve, poor fit] |
| O=C(Cc1cccs1)Nc1ccc(S(=O)(=O)N2CCCC2)cc1 | inconclusive: 79.4 µM [inhibitor, partial curve, poor fit] |
| CCn1c(SCc2nc(-c3ccccc3)oc2C)nc2c(=O)[nH]cnc21 | inactive |
| Cc1cccc(CNc2cc(-c3cccc(NS(C)(=O)=O)c3)ncn2)c1 | active: 35.5 µM |
| O=C(Cn1ccccc1=O)Nc1ccc(Cl)c(S(=O)(=O)N2CCCCC2)c1 | inconclusive: 39.8 µM [inhibitor, partial curve, poor fit] |
| COc1cc(NC(=S)Nc2ccccn2)c(OC)cc1Cl | inconclusive: 35.5 µM [inhibitor, partial curve, poor fit] |
| O=C1CC2(CCN(C(=O)COc3ccc(Cl)cc3)CC2)Oc2ccccc21 | inconclusive: 44.7 µM [inhibitor, partial curve] |
| Cc1cc(=O)oc2cc(OCC(O)CN3CCN(c4ccccc4)CC3)ccc12 (stereo not drawn) | inactive |
| NC(c1csc(NC(=O)Nc2cccc(C(F)(F)F)c2)n1)C1CCCCC1 (stereo not drawn) | inconclusive: 79.4 µM [inhibitor, partial curve, poor fit] |
| O=C(NCCC1=CCCCC1)c1cn(CCCc2ccccc2)nn1 | inactive |
| O=c1c2c(C(F)(F)F)cc(C(F)(F)F)nc2[nH]n1-c1ccccc1 | inconclusive: 20 µM [inhibitor, full curve] |
| Cc1ccc(C)c2[nH]c(=O)c(CN(CCN3CCOCC3)Cc3nnnn3CC3CCCO3)cc12 (stereo not drawn) | inactive |
| Cn1c(N2CCCCC2)cc(=O)n(C)c1=O | inconclusive: 126 µM [inhibitor, partial curve, poor fit] |
| Cc1ccccc1-n1c2nc(=O)[nH]c(=O)c-2cc2c(Cl)cccc21 | inconclusive: 126 µM [inhibitor, partial curve, poor fit] |
| O=C(CN1CCCCCC1)Nc1ccc(Br)cn1 | inconclusive: 39.8 µM [inhibitor, partial curve, poor fit] |

| Structure (SMILES) | Potency |
| --- | --- |
| CC(=O)Oc1ccc(C2=Cc3ccc(OC(C)=O)cc3OC2C)cc1 (stereo not drawn) | inactive |
| Cc1ccc(OCC(O)CN2CCOCC2)c(C)c1 (stereo not drawn) | inconclusive: 35.5 µM [inhibitor, partial curve, poor fit] |
| C#Cc1ccc(CN2CCN(CCc3ccccc3)C(CCO)C2)cc1 (stereo not drawn) | inactive |
| COc1ccc(Nc2nc(N)c(C(=O)c3ccc(Br)cc3)s2)cc1OC | inconclusive: 28.2 µM [inhibitor, partial curve, poor fit] |
| O=C(N/N=C/c1ccsc1)c1ccc(Cl)cc1 | inconclusive: 63.1 µM [inhibitor, partial curve, poor fit] |
| Cc1onc(-c2ccccc2)c1-c1nnc(CN2CCN(S(=O)(=O)c3ccccc3F)CC2)o1 | inconclusive: 50.1 µM [inhibitor, partial curve, poor fit] |
| COC(=O)c1cc(COC(=O)C2COc3ccccc3O2)oc1C (stereo not drawn) | inconclusive: 28.2 µM [inhibitor, partial curve, poor fit] |
| CC(=O)Nc1ccc(NC(=O)Cn2ccn3nc(-c4ccc(F)cc4)c(CO)c3c2=O)cc1 | inconclusive: 28.2 µM [inhibitor, full curve, poor fit] |
| COCCCN1C(=O)c2[nH]nc(-c3ccccc3O)c2C1c1ccc(OC)cc1 (stereo not drawn) | inconclusive: 141 µM [inhibitor, single point] |
| COc1ccccc1/C=C1\Oc2cc(OC(=O)C(C)(C)C)ccc2C1=O | inactive |
| Cc1cc([N+](=O)[O-])ccc1N=C/C(Br)=C/c1ccccc1 | inconclusive: 31.6 µM [inhibitor, partial curve, poor fit] |
| Cc1ccccc1CN1CCN(C(=O)CC(C)C)CC1 | inconclusive: 1 µM [inhibitor, full curve, poor fit] |
| Cc1ncc(CN2CCC(N3CCC(C(=O)NCc4ccccn4)CC3)CC2)s1 | inactive |
| CCN1CCCC1CNC(=O)c1cc2ccccc2oc1=O (stereo not drawn) | inactive |
| Cc1ccc(SCC(=O)Nc2nnc(-c3ccco3)o2)cc1 | inactive |
| CCCCOc1ccc2c(-c3ccccc3)cc(=O)oc2c1 | inconclusive: 56.2 µM [inhibitor, single point] |
| CN(C)c1ccc(CNc2ncnc3sccc23)cc1 | inactive |
| O=C(C1CCC(CNS(=O)(=O)c2cccs2)CC1)N1CCN(c2ccc(Cl)cc2)CC1 (stereo not drawn) | inactive and inconclusive: 44.7 µM [inhibitor, partial curve, poor fit] |
| CC(C)CCC(C)NC(=O)c1nccnc1N (stereo not drawn) | inactive |
| Cc1c(C(O)CN2CCC(C(N)=O)CC2)c2ccccc2n1C (stereo not drawn) | inconclusive: 56.2 µM [inhibitor, partial curve, poor fit] |
| O=[N+]([O-])c1ccc2cccnc2c1 | inactive |
| O=C(NC1CCC(O)CC1)c1cc(-c2ccco2)nc2ccccc12 (stereo not drawn) | inconclusive: 100 µM [inhibitor, single point] |
| Cn1nc(C(=O)Nc2ncc(Cc3ccc(Cl)cc3)s2)c2ccccc2c1=O | inactive |

In the list so far, 4 have fluorine.

| Structure (SMILES) | Potency |
| --- | --- |
| NC(c1csc(NC(=O)Nc2cccc(C(F)(F)F)c2)n1)C1CCCCC1 (stereo not drawn) | inconclusive: 79.4 µM [inhibitor, partial curve, poor fit] |
| O=c1c2c(C(F)(F)F)cc(C(F)(F)F)nc2[nH]n1-c1ccccc1 | inconclusive: 20 µM [inhibitor, full curve] |
| Cc1onc(-c2ccccc2)c1-c1nnc(CN2CCN(S(=O)(=O)c3ccccc3F)CC2)o1 | inconclusive: 50.1 µM [inhibitor, partial curve, poor fit] |
| CC(=O)Nc1ccc(NC(=O)Cn2ccn3nc(-c4ccc(F)cc4)c(CO)c3c2=O)cc1 | inconclusive: 28.2 µM [inhibitor, full curve, poor fit] |

(continued)

| Structure (SMILES) | Potency |
| --- | --- |
| COc1ccc(C(=O)CSc2nnc(-c3ccco3)c(-c3ccco3)n2)cc1 | active: 20 µM |
| CC(C)n1nc(C(=O)Nc2ccc(S(=O)(=O)N(C)C)cc2)c2ccccc2c1=O | inconclusive: 100 µM [inhibitor, partial curve, poor fit] |
| COc1ccccc1-n1c(-c2ccccc2)c[nH]c1=S | inconclusive: 20 µM [inhibitor, partial curve, poor fit] |
| O=C1NC[C@H](CCCCN2C[C@H](Cc3ccc(O)cc3)N(CCC3CCCCC3)C(=O)C2=O)N(CC2CCCCC2)C1=O | inconclusive: 39.8 µM [inhibitor, partial curve, poor fit] |
| O=C(c1ccccc1F)N(Cc1ccc2cc[nH]c2c1)C1CC1 | inconclusive: 89.1 µM [inhibitor, single point] |
| CCN(CC)CCNC(=O)C(=O)Nc1cccc2ncccc12 | inconclusive: 89.1 µM [inhibitor, partial curve, poor fit] |
| c1coc(-c2cc(CSc3ccc4c(c3)OCCCO4)no2)c1 | inconclusive: 63.1 µM [inhibitor, partial curve, poor fit] |
| CC(=O)Nc1c(-c2ccccc2)c(C)nn1-c1ccc(C(=O)N2CCN(C3CCCCC3)CC2)cc1 | inactive |
| CC(=O)N1CCC(=NNc2nc3ccccc3[nH]2)CC1 | inconclusive: 0.398 µM [inhibitor, full curve] |
| Cc1cccc(Nc2nc(N)nc(-c3oc4ccccc4c3C)n2)c1 | inconclusive: 112 µM [inhibitor, partial curve, poor fit] |
| Cc1ccc(Cn2c(Cc3ccccc3)nc3ccccc32)cc1 | inconclusive: 126 µM [inhibitor, single point] |
| COC(=O)c1sccc1S(=O)(=O)Nc1ccc(C(O)(C(F)(F)F)C(F)(F)F)cc1 | inconclusive: 50.1 µM [inhibitor, partial curve, poor fit] |
| CN(CCCCOc1ccc2ccccc2c1)CCCCOc1ccc2ccccc2c1 | inconclusive: 0.447 µM [inhibitor, full curve, poor fit] |
| O=C(NCc1ccc(F)cc1)c1cc(C2CCCCN2C(=O)OCCF)on1 (stereo not drawn) | inactive |
| CCCc1cc(=O)oc2c(C)c(OC/C=C(\C)CCC=C(C)C)ccc12 | inconclusive: 44.7 µM [inhibitor, partial curve, poor fit] |
| Cn1c2ccc(F)cc2c2ncn(Cc3ccco3)c(=O)c21 | inconclusive: 50.1 µM [inhibitor, partial curve, poor fit] |
| Cc1ccc(N=Nc2c(N)[nH]n3c(=O)cc(-c4ccccc4)nc23)cc1 | inactive |
| OC(CCCN1CCC(O)(c2ccc(Cl)cc2)CC1)c1ccc(F)cc1 (stereo not drawn) | inconclusive: 50.1 µM [inhibitor, partial curve, poor fit] |
| O=C(c1ccc(Cl)c(Cl)c1)N(Cc1ccco1)c1ccc(O)cc1 | inconclusive: 79.4 µM [inhibitor, partial curve, poor fit] |
| COc1cccc(-c2noc(Cn3nc(C)c([N+](=O)[O-])c3C)n2)c1 | inactive |
| Cc1[nH]n(C(N)=S)c(=O)c1N=Nc1ccc([N+](=O)[O-])cc1Cl | active: 10 µM |
| CC(COc1ccccc1)NN (stereo not drawn) | inconclusive: 11.4 µM [inhibitor, single point] |
